Assay [1] has as its target CD25-His recombinant protein (human) (UniProt P01589). Briefly: ELISA, CD25-His coated. (In general: ELISA stands for enzyme-linked immunosorbent assay.)
For assay [2] the target is unchanged. Briefly: BLI binding kinetics. (In general: In BLI a coated tip is dipped into the sample, and binding shifts an interference pattern.)
Assay [3] shares this target. Kind of assay: ELISA, gradient dilution.

By UniProt entry, the sequences of proteins in these tests, tags left out. Residues count along the entry.
UniProt P01589, residues 22-240: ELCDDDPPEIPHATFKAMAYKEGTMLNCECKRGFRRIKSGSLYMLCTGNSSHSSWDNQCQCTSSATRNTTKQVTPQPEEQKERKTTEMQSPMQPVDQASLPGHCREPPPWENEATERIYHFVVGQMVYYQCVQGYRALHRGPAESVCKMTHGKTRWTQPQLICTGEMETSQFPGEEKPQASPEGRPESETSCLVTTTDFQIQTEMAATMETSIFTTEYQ

These are yes or no findings as the source states them, for the method shown. Some entries that bind do so weakly or less than the wild type.

B1: A05 (VHH)
VHH: QVQLVESGGGLAQPGGSLRLSCAASGFTFSIYAMSWARQAPGKGLEWVSGIYSDSSYTYYADSVKGRFTISRDNAKNTLYLQMNSLKPEDTALYYCLKARGSGSYYPFDDYRGQGTQVTVSS
B1: the binding result in assay [1] is on record as “binds”.

B2: D04 (VHH)
VHH: QVQLVESGGGLVQPGGSLRLSCAASGFTFSSSAVSWARLTPGKRLEWVSAIASDGSTYYADSMQGRFTISRDNAKNTVYLQMNSLKPEDTAVYYCAIPRDGLVPVFGIDYWGQGTQVTVSS
Regarding B2, in assay [1], the binding entry is “binds”.

B3: B04 (VHH)
VHH: QVQLVESGGGLVQPGGSLRLSCATSGFTLDYYAIGWFRQAPGKEREGVSCISSSDGTTAYADSVKGRFTISTDNARNTVYLQMNSLKPEDTAVYYCAADLGYYCADNVRYAGSLYDYWGQGTQVTVSS
As to B3, the binding entry in assay [1] is “binds”.

B4: G10 (VHH)
VHH: DVQLVESGGGLAQPGGSLRLSCAASGFTFSNYAMNWLRQAPGKGLEWVSGIYSDSSGTYYADSVKGRFTISRDNAKNTLYLQMNSLKPEDTALYYCAKASNSGSYYPWDDDWGQGTQVTVSA
Turning to B4, the binding result in assay [1] is reported as “binds”.

B5: E08 (VHH)
VHH: AVQLVESGGGLVQPGGSLRLSCAASGFTFSSYPMGWYRQAPGEECELVAGITSAGGSTNYADSVKGRFTISRDNAKNTVYLQMNSLKPEDTAVYYCNTDPRYYTDSRGPCSWGQGTQVTVSS
As to B5, in assay [1], the binding entry is “binds”.

B6: clone A07 (VHH)
VHH: EVQLVESGGGLAQPGGSLRLSCAVSGFTLDYYAIGWFRQAPGKEREGVSCISGSDGRTAYTDSVKGRFTISKDNAKNTVYLQMNSLKPEDTAVYYCAADPGYYCAGEVRYAGSLYDYWGQGTQVTVSS
notes: Recombinant antibody from a eukaryotic expression vector (293F); also called A-A7; A-A07-VHH
Regarding B6, the binding result in assay [1] and in assay [2] was “binds” in each case.

B7: A07-HM5 (VHH)
VHH: EVQLVESGGGLVQPGGSLRLSCAVSGFTLDYYAIGWFRQAPGKGLEGVSCISGSDGRTAYADSVKGRFTISKDNAKNTVYLQMNSLRAEDTAVYYCAADPGYYCAGEVRYAGSLYDYWGQGTLVTVSS
Consider B7, for which the binding entry in assay [2] and in assay [3] was “binds” each time.

B8: A07-HM6 (VHH)
VHH: EVQLLESGGGLVQPGGSLRLSCAVSGFTLDYYAIGWFRQAPGKGLEGVSCISGSDGRTAYGDSVKGRFTISKDNAKNTVYLQMNSLRAEDTAVYYCAADPGYYCAGEVRYAGSLYDYWGQGTLVTVSS
For B8, the binding entry in assay [3] was “binds”.

B9: D01 (VHH)
VHH: QVQLVESGGGLAQPGGSLRLSCAASGFTFSNFAVSWARQVAGEGFEWVSGVYSDGDTYYADSVKDRFIISRDNAKNTLYLQMNSLKPEDTALYYCGAARGRLCSSIMTCDYWGQGTQVTVSS
As to B9, in assay [1], the binding entry is “binds”.

B10: A11 (VHH)
VHH: DVQLVESGGGLVQPGGSLRLSCAASGFTFSSYAMSWYRQAPGKERELVAYITTSPGYTTYTDSVKGRFTISRDNAKNTVYLQMNSLKPDDTAVYYCNAWRGAPRGDYWGQGTQVTVSS
With B10, the binding entry in assay [1] is given as “binds”.

The values are drawn from patent publication US20260070994A1 (PASSION TECHNOLOGY ZHUHAI PARTNERSHIP LIMITED PARTNERSHIP, published 2026).
